Where a chain is given by its changes, count along the chain named. These are yes or no findings as the source states them, for the method shown. In cells and extracts the contact can be indirect. Some binding calls cover weakened binding; strength is not graded here. Sequences can lack the tags named with a protein.
How the values were obtained:
[1] = biological target: T1, CCR9-RLuc8 Y126A (human); assay: FRET or BRET; basal BRET between RLuc8-tagged receptor and YFP-tagged Arr3 in HEK293T cells in the absence of agonist stimulation
T1 sequence: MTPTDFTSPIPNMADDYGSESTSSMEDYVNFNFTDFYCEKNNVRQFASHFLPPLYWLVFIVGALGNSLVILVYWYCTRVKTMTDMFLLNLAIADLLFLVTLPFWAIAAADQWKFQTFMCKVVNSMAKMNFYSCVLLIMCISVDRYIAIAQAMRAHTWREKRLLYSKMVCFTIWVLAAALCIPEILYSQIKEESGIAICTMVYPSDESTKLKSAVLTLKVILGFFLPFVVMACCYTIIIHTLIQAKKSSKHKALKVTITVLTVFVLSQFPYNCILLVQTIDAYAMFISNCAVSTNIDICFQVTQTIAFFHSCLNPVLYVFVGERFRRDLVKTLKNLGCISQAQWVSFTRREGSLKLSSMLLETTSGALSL

[2] = biological target: T2, CCR9-RLuc8 F299A (human); assay: as above
T2 sequence: T1 sequence with A126Y, F299A

[3] = biological target: T3, CCR9-RLuc8 N271A (human); assay: as above
T3 sequence: T1 sequence with A126Y, N271A

[4] = biological target: T4, CCR9-RLuc8 Q267A (human); assay: as above
T4 sequence: T1 sequence with A126Y, Q267A

[5] = biological target: T1, CCR9-RLuc8 Y126A (human); assay: FRET or BRET; HEK293T cells expressing CCR9-RLuc8 (WT or mutant) and YFP-Arr3, stimulated with CCL25 or [1P6]CCL25 at six concentrations in BRET buffer; area under the concentration-response curve against WT
[6] = biological target: T2, CCR9-RLuc8 F299A (human); assay: as above
[7] = biological target: T5, CCR9-RLuc8 T208A (human); assay: as above
T5 sequence: T1 sequence with A126Y, T208A

[8] = biological target: T6, CCR9-RLuc8 S207A (human); assay: as above
T6 sequence: T1 sequence with A126Y, S207A

[9] = biological target: T7, CCR9 C-terminally fused to the Renilla luciferase variant RLuc8, wild type (human); assay: as above
T7 sequence: T1 sequence with A126Y

[10] = biological target: T3, CCR9-RLuc8 N271A (human); assay: as above

Measured: binding

YFP-arrestin 3 (from UniProt P32121 1-409)
no binding: [7]
binds: all other assays above

Source: paper PMC12361432
